Results published in patent US20180155432A1.
These are yes or no findings as the source states them, for the method shown. Some results given as binding are weak or reduced against the parent protein; the word gives no strength.

Protein sequences, listed by entry. Tags and fused reporters are not part of them. Lines headed by an entry give the natural chain unless they say otherwise; changes in a name come on top. Residues count along the entry.
UniProt P10415, residues 1-211: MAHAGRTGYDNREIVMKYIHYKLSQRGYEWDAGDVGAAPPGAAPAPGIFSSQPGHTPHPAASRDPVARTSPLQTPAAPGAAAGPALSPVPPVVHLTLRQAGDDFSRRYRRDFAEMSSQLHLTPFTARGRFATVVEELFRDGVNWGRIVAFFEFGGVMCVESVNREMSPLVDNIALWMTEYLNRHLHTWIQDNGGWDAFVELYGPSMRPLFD
UniProt P47929: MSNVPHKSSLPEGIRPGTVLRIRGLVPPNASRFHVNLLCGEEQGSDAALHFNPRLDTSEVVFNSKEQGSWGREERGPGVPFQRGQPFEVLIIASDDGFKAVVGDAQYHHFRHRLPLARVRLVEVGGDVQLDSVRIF

Target: recombinant human Bcl-2 protein fragment (human) (UniProt P10415)
Experiment: low-SDS Western blot with anti-gal-7 or anti-Bcl-2 antibody

- binding: binds
Substance: recombinant human galectin-7 (from UniProt P47929 1-136)
